Laboratory results from a melting point compilation (Tetko et al.; mined from patent text by program, amines drawn as free bases though some values may be those of a salt).

melting point: 138 to 139 °C
Compound: O=C(Nc1ccc(OCc2ccccn2)nc1)N1CCc2cc(Br)ccc21
